Experimental data as given in article PMC5356443, “Structural, mechanistic and functional insight into gliotoxin bis-thiomethylation in Aspergillus fumigatus” (Open Biology, 2017).
No constants are given. Whether binding was seen depends on the method and setting.

Amino acid sequences for entries named in this document (tags omitted).
UniProt Q4X158: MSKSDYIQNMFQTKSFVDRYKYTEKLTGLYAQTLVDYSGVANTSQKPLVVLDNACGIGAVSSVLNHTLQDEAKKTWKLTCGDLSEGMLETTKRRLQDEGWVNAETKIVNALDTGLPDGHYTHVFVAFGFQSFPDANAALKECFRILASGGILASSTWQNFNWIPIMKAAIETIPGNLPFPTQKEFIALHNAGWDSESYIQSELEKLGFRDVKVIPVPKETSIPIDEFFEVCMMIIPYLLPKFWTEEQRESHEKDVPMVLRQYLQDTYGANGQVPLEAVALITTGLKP

Columns and labels:
[1] = target: gliotoxin thiomethyltransferase A (GtmA) (Aspergillus fumigatus) (UniProt Q4X158); assay: crystal structure; GtmA-SAH complex, space group P2_(1), two monomers in the asymmetric unit; dimer assessed with PDBePISA; 1.33 Å; both purified
[2] = target: gliotoxin thiomethyltransferase A (GtmA) (Aspergillus fumigatus) (UniProt Q4X158); assay: SEC; size exclusion chromatography of purified GtmA (electronic supplementary figure S1); conditions of this run not given; both purified

## gliotoxin thiomethyltransferase A (GtmA) (from UniProt Q4X158 1-287) (enzyme)
[1]
  binding: no binding
[2]
  binding: no binding
